Assay results as given in paper doi:10.1101/2020.10.29.360891.
Numbering of substitutions follows the chain as printed. No constants are given. Whether binding was seen depends on the method and setting. In cells and extracts the contact can be indirect. Some results given as binding are weak or reduced against the parent protein; the word gives no strength.

Experiments:
[1] = molecular target: T1, LAP-Rab34-L61D (human) (UniProt Q9BZG1); experiment: co-IP
T1 sequence: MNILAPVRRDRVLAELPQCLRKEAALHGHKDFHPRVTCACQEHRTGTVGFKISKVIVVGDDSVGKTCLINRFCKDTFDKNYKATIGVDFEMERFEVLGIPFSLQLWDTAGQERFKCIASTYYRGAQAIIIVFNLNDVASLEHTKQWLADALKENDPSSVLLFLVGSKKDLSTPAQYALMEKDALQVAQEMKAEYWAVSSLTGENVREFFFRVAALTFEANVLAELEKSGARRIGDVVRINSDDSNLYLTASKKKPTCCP

[2] = molecular target: T2, LAP-Rab34-S166N (human) (UniProt Q9BZG1); experiment: co-IP
T2 sequence: T1 sequence with D61L, S166N

binding [1]: binds | binding [2]: binds
B1: RILPL1 (protein, UniProt Q5EBL4 1-403)
chain: MEEERGSALAAESALEKNVAELTVMDVYDIASLVGHEFERVIDQHGCEAIARLMPKVVRVLEILEVLVSRHHVAPELDELRLELDRLRLERMDRIEKERKHQKELELVEDVWRGEAQDLLSQIAQLQEENKQLMTNLSHKDVNFSEEEFQKHEGMSERERQVMKKLKEVVDKQRDEIRAKDRELGLKNEDVEALQQQQTRLMKINHDLRHRVTVVEAQGKALIEQKVELEADLQTKEQEMGSLRAELGKLRERLQGEHSQNGEEEPETEPVGEESISDAEKVAMDLKDPNRPRFTLQELRDVLHERNELKSKVFLLQEELAYYKSEEMEEENRIPQPPPIAHPRTSPQPESGIKRLFSFFSRDKKRLANTQRNVHIQESFGQWANTHRDDGYTEQGQEALQHL
